Assay [1] deals with T1, HA-tagged TAK1 (transforming growth factor-beta-activated kinase 1), wild type (UniProt O43318).
T1 sequence: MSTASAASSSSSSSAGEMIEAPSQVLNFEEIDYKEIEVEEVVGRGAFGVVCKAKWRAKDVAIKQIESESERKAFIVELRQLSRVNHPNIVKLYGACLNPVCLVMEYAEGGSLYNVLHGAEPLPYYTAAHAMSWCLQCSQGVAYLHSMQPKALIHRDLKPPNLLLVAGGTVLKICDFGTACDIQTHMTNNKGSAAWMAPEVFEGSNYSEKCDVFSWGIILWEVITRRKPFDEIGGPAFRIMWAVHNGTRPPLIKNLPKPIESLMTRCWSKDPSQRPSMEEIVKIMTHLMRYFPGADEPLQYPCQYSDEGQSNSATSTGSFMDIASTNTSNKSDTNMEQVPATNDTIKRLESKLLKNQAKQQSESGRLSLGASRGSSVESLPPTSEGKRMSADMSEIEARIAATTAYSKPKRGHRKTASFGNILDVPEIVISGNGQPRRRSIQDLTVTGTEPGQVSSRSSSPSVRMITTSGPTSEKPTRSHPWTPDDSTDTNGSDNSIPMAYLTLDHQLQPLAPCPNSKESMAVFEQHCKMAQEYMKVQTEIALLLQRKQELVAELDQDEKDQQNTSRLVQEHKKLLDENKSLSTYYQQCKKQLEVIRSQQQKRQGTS
As to the kind of experiment: co-IP.

The target of assay [2] is T2, endogenous TAK1 of mouse embryonic fibroblasts (mouse (endogenous in MEFs)) (UniProt Q62073).
T2 sequence: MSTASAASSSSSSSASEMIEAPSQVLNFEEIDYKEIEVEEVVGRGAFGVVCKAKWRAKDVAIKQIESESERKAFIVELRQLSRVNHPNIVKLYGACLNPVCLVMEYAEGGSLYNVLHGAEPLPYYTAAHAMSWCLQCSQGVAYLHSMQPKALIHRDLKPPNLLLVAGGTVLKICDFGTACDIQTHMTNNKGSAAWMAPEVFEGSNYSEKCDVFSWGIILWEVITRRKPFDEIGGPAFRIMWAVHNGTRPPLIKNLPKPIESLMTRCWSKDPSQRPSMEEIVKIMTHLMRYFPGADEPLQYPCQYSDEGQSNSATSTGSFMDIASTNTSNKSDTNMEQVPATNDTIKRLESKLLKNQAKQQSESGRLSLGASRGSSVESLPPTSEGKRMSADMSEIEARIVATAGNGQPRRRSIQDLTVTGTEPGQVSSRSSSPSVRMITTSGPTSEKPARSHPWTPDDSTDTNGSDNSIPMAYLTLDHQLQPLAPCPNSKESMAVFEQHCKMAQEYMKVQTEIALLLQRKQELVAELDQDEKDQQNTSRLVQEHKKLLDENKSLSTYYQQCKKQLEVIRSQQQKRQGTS
As to the kind of experiment: co-IP.

Results are given in words; binding and its absence hold for the method and conditions named. Binding seen in cells or lysates may run through a third protein. Some entries that bind do so weakly or less than the wild type. For part of these data: Sequences can lack the tags named with a protein.

B1: FLAG-tagged TAB2 (TAK1-binding protein 2) (protein, UniProt Q9NYJ8 1-693)
chain: MAQGSHQIDFQVLHDLRQKFPEVPEVVVSRCMLQNNNNLDACCAVLSQESTRYLYGEGDLNFSDDSGISGLRNHMTSLNLDLQSQNIYHHGREGSRMNGSRTLTHSISDGQLQGGQSNSELFQQEPQTAPAQVPQGFNVFGMSSSSGASNSAPHLGFHLGSKGTSSLSQQTPRFNPIMVTLAPNIQTGRNTPTSLHIHGVPPPVLNSPQGNSIYIRPYITTPGGTTRQTQQHSGWVSQFNPMNPQQVYQPSQPGPWTTCPASNPLSHTSSQQPNQQGHQTSHVYMPISSPTTSQPPTIHSSGSSQSSAHSQYNIQNISTGPRKNQIEIKLEPPQRNNSSKLRSSGPRTSSTSSSVNSQTLNRNQPTVYIAASPPNTDELMSRSQPKVYISANAATGDEQVMRNQPTLFISTNSGASAASRNMSGQVSMGPAFIHHHPPKSRAIGNNSATSPRVVVTQPNTKYTFKITVSPNKPPAVSPGVVSPTFELTNLLNHPDHYVETENIQHLTDPTLAHVDRISETRKLSMGSDDAAYTQALLVHQKARMERLQRELEIQKKKLDKLKSEVNEMENNLTRRRLKRSNSISQIPSLEEMQQLRSCNRQLQIDIDCLTKEIDLFQARGPHFNPSAIHNFYDNIGFVGPVPPKPKDQRSIIKTPKTQDTEDDEGAQWNCTACTFLNHPALIRCEQCEMPRHF
With B1, in assay [1], the binding entry is “binds”.

B2: endogenous TAB2 of mouse embryonic fibroblasts (protein, UniProt Q99K90 1-693)
chain: MAQGSHQIDFQVLHDLRQKFPEVPEVVVSRCMLQNNNNLDACCAVLSQESTRYLYGEGDLNFSDESGISGLRNHMTSLNLDLQSQNVYHHGREGSRVNGSRTLTHSVSDGQLHGGQSNNELFQQEPQTAPAQVPQGFNVFGMPSTSGASNSTPHLGFHLGSKGTSNLSQQTPRFNPIMVTLAPNIQTGRSTPTSLHIHGVPPPVLNSPQGNSIYIRPYITTPSGTARQTQQHSGWVSQFNPMNPQQAYQPSQPGPWTTYPASNPLPHTSTQQPNQQGHQTSHVYMPISSPTTPQPPTIHSSGSSQSSAHSQYNIQNISTGPRKNQIEIKLEPPQRNSSSKLRSSGPRTASTSSLVNSQTLNRNQPTVYIAASPPNTDEMISRSQPKVYISANATAGDEQGMRNQPTLFISTNSGPSAASRNMSGQVSMGPAFIHHHPPKSRVLGGNSATSPRVVVTQPNTKYTFKITVSPNKPPAVSPGVVSPTFELTNLLNHPDHYVETENIQHLTDPALAHVDRISEARKLSMGSDDAAYTQALLVHQKARMERLQRELEMQKKKLDKLKSEVNEMENNLTRRRLKRSNSISQIPSLEEMQQLRSCNRQLQIDIDCLTKEIDLFQARGPHFNPSAIHNFYDNIGFVGPVPPKPKDQRSTIKAPKTQDAEDEEGAQWNCTACTFLNHPALIRCEQCEMPRHF
Regarding B2, the binding entry in assay [2] is “binds”.

B3: endogenous TAB3 of mouse embryonic fibroblasts (protein, UniProt Q571K4 1-716)
chain: MAQNSPQLDIQVLHDLRQRFPEIPEGVVSQCMLQNNNNLEACCRALSQESSKYLYMEYHSPEDNRMNRNRLLHINLGIHSPSSYHPGDGAHLNGGRTLVHSSSDGHIDPQHTAGKQLICLVQEPHSAPAVVAATPNYNPFFMNEQNRSAATPPSQPPQQPSSMQTGMNPSAMQGPSPPPPPPSYMHIPRYSTNPITVTVSQNLPSGQTVPRALQILPQIPSNLYGSPGSIFIRQTSQSSSGRQTPQNAPWQSSPQGPVPHYSQRPLPVYPHQQNYQPSQYSPKQQQIPQSVYHSPPPSQCPSPFSSPQHQVQPPQLGHPSSHVFMPPSPSTTPPHLYQQGPPSYQKPGSHSVAYLPYTASSLPKGSMKKIEITVEPSQRPGTAITRSPSPISNQPSPRNQHSLYTATTPPSSSPSRGISSQPKPPFSVNPVYITYTQPTGPSCAPSPSPRVIPNPTTVFKITVGRATTENLLNLVDQEERSAAPEPIQPISVIPGSGGEKGNHKYQRSSSSGSDDYAYTQALLLHQRARMERLAKQLKLEKEELERLKAEVNSMEHDLMQRRLRRVSCTTAIPTPEEMTRLRSTNRQLQINVDCTLKEVDLLQSRGNFDPKAINNFYDHIEPGPVVPPKPSKKDSSDSCAIERKARRISVTSKAPVDIHDAQAAAADEHLSICKQSARTQPRDEDYEGAPWNCDSCTFLNHPALNRCEQCEMPRYT
With B3, in assay [2], the binding result was “binds”.

These data come from article doi:10.1101/2025.11.17.688803.
